The chains are these.
B1: 1G2 antibody (antibody, mouse IgG1, kappa, V domains shown)
VH: QVQLRESGPGLVAPSQSLSITCTVSGFSLPRYGIHWVRQPPGKGLEWLGVIWAGGSTDYDSALMSRLSISKDTSKSQVFLKMSSLQTDDTAIYYCARAGGSQPFDYWGQGTTLTVSS
VL: DIKMTQSPSSMYASLGERVTITCKASRDINTYLSWFQQKPGKSPKTLISRANRLVDGVPSRFSGSGSGQDYSLSISSLEYEDMGFYYCLQYDEFPWTFGGGTKLVIKR
B2: 12D10 antibody (antibody, mouse IgG1, kappa, V domains shown)
VH: QVQLKESGPGLVAPSQSLSITCTVSGFSLTRYGVHWVRQPPGKGLEWLGVIWAGGSTNYKSALMSRLNITKDNSKSQVFLKMNGLQTDDTAIYFCARAGGSSSFDYWGQGTTLTVSS
VL: DIKMTQSPSSMNASLGERVTITCKASQDINTYLGWFQQKPGKSPKTLIYRANRLVDGVPSRFSGSGSGQGYSLTISSLEYEDMGIYYCLQYDEFPWTFGGGTKLEIKR
B3: 9A7 antibody (antibody, mouse IgG2b, kappa, V domains shown)
VH: QVQLKESGPGLVAPSQSLSITCTVSGFSLTGYGIHWVRQPPGKGLEWLGVIWADGTTNSNSALMSRLSISKDNSKSQVFLKMTSLQTDDTAMYHCARAGGSQPFDYWGQGTTLTVSS
VL: DIKMTQSPSSMYASLGERVTITCKASQDINSYLSWFQQKPGKSPKTLIFRANRLVDGVPSRFSGSGSGQDYSLTISSLEYEDMEIYYCLQYDEFPWTFGGGTKLEIKR

Results are given in words; binding and its absence hold for the method and conditions named. Some entries that bind do so weakly or less than the wild type.

The assay deals with T1, ADAMTS13 MD recombinant antigen (ADAMTS13 metalloprotease domain (MP) linked with a disintegrin-like domain (D)) (UniProt Q76LX8).
T1 sequence (looked up): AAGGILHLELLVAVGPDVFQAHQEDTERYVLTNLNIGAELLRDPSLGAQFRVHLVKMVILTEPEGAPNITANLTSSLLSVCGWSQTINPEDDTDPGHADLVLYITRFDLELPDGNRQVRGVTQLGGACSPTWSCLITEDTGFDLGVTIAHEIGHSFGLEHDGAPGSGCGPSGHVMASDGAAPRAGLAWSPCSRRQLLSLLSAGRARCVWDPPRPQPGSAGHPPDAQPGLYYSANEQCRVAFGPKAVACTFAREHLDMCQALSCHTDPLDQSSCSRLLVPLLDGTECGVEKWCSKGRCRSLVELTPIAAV
In words: hybridoma supernatant ELISA on immobilized ADAMTS13 MD antigen. Background: ELISA stands for enzyme-linked immunosorbent assay.
Take B1: the binding result was “binds”.

For B2, the binding entry is recorded as “binds”. Regarding B3, the binding entry is “binds”.
